# Data from PubChem BioAssay AID1439 (NMMLSC, 2008).
# Chains of the proteins cited; added tags and fusions are not shown.
# UniProt P09471, whole entry, looked up: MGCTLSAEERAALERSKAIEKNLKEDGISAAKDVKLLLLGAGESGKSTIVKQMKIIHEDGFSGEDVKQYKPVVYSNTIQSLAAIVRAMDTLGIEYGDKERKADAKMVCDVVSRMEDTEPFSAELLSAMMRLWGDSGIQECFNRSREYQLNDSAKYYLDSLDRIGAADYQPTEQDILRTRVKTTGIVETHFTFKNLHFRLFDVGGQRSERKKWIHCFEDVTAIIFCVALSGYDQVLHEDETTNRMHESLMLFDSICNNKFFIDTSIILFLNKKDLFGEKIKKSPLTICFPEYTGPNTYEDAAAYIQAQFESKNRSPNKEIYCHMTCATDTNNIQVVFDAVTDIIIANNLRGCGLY
# The whole screen tested about 220,000 compounds, of which about 770 (0.35%) were called active. This list was built around the results that the source calls inconclusive (neither active nor inactive); the mix of calls is not that of the screen. No stated cut-off is given here; in the data, active means binding response below about 49% or above about 150%; inconclusive means no clear call, values can overlap the other calls; inactive means in between.
# Molecular target: Guanine nucleotide-binding protein G(o) subunit alpha (Homo sapiens) (UniProt P09471)
# Assay: RGS7-Galphao binding modulators, primary screen, biochemical, multiplexed bead flow cytometry (AID 1439);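 further: fluorescent Galphao held in activated GDP-AlF4 state binding bead-coupled RGS7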
# Conditions: at 10 µM, actives lie on both sides
row,Compound,binding response (% of control)
1,c1ccc2c(c1)nc1n2CC2CON(C3CCCCC3)C12 (stereo not drawn),inconclusive: 106%
2,COc1cc(NC(=O)c2cncc(-c3ccc(C#N)cc3)c2)cc(C(=O)Nc2cccc(C(F)(F)F)c2)c1,inconclusive: 161%
3,COc1ccc([N+](=O)[O-])c(S(=O)(=O)c2ccc(Cl)cc2)n1,inconclusive: 185%
4,C[C@]12CC[C@@H]3c4ccc(O)cc4C(=O)C[C@H]3[C@@H]1CC[C@@H]2O,inactive: 90.3%
5,O=C(CCN1C(=O)/C(=C/c2ccccc2Cl)SC1=S)NC1=NCCS1,inactive: 122%
6,COc1ccc(-c2ccc(C#N)c(SCC(=O)NCc3ccco3)n2)cc1OC,inconclusive: 106%
7,O=C(NC12CC3CC(CC(C3)C1)C2)c1cc([N+](=O)[O-])ccc1N1CCOCC1,inactive: 98.3%
8,Cc1sc2ncnc(Sc3nnc4sc5ccccc5n34)c2c1C,inactive: 129%
9,COc1ccccc1NC(=O)Nc1c(C)nn(C)c1C,inconclusive: 85.2%
10,COC(=O)c1cc(NC(=O)c2cc(-c3ccc(C(F)(F)F)cc3)oc2C(F)(F)F)ccc1N1CCOCC1,inconclusive: 119%
11,Cc1ccc(NS(=O)(=O)c2ccc(C3CCCCC3)cc2)cc1,inactive: 102%
12,COCCOC(=O)C1=C(C)NC(=O)NC1c1ccco1 (stereo not drawn),inconclusive: 90.7%
13,COc1ccc(S(=O)(=O)N2CCN(C(=O)c3cc(C)oc3C)CC2)cc1,inconclusive: 102%
14,O=C(c1ccccc1)c1ccc(Oc2ncccn2)cc1,inactive: 99.1%
15,O=C(O)c1ccccc1N/N=C/c1cc(Br)cc(Br)c1O,inconclusive: 88.5%
16,CC(=O)N1CCN(c2c(F)c(F)c(C(F)(F)F)c(F)c2F)CC1,inactive: 102%
17,O=[N+]([O-])c1cc(Cl)c(O)c2ncccc12,inconclusive: 96.8%
18,OC1(c2ccccn2)COc2ccccc2O1 (stereo not drawn),inconclusive: -39.5%
19,Cc1ccc(/C([O-])=C(/C(=S)NCc2ccccc2)[n+]2ccccc2)cc1[N+](=O)[O-],inconclusive: 104%
20,Cc1ccc(N2C(=O)N(CC(=O)N3CCOCC3)C(=O)C2C)cc1 (stereo not drawn),inactive: 116%

# Copied from the list.
# `c1ccc2c(c1)nc1n2CC2CON(C3CCCCC3)C12` (stereo not drawn) – binding response (% of control): inconclusive: 106%
# `O=C(CCN1C(=O)/C(=C/c2ccccc2Cl)SC1=S)NC1=NCCS1` – binding response (% of control): inactive: 122%
# `O=C(c1ccccc1)c1ccc(Oc2ncccn2)cc1` – binding response (% of control): inactive: 99.1%

# Next part

row,Compound,binding response (% of control)
1,CC1CCCCC1NC(=S)NC(=O)c1cccs1 (stereo not drawn),inconclusive: 110%
2,O=C(COc1cccc2cccnc12)N/N=C/c1cccn1-c1ccc(F)cc1,inconclusive: 84.7%
3,CC#CC[N+](C)(C)CCCCCCCC,inconclusive: 92.9%
4,COc1ccc(N2CCN(C(=O)NC3CC(=O)N(c4ccc(OC)cc4)C3)CC2)cc1 (stereo not drawn),inactive: 100%
5,Clc1ccc(SCc2csc(N3CCOCC3)n2)cc1,inconclusive: 89.9%
6,CN1CC(=O)N(CC(=O)Nc2cc(Cl)cc(Cl)c2)C1=O,inconclusive: 108%
7,COC(=O)c1cccc(C23CC4(C2)[C@H](CN(Cc2ccc(-c5ccccc5)cc2)[C@@H]4c2ccccc2)C3c2ccccc2)c1 (stereo partly drawn),inconclusive: 88.8%
8,CNC(=O)c1c(C)nn(-c2ccc(F)c(Cl)c2)c1-c1cc(C)on1,inconclusive: 78.5%
9,CC(C)(C)NC(=O)/C=C/c1cccs1,inconclusive: 101%
10,COc1ccc(C(=O)Nc2ccccc2C(=O)NC(Cc2ccc(O)cc2)C(=O)NNC(=O)c2ccncc2)cc1 (stereo not drawn),inactive: 95.5%
11,Cc1cc(=O)oc2cc(OC(C)C(=O)N3CCOCC3)ccc12 (stereo not drawn),inactive: 96.3%
12,C=CCSc1nc(-c2ccc(OC)cc2)c(C#N)c(=O)n1CC=C,inconclusive: 104%
13,CCOC(=O)c1ccc(NC(=O)c2nc[nH]c2C(=O)N[C@@H](C)C(=O)OC(C)(C)C)cc1,inconclusive: 81.9%
14,O=C(O)c1csc(-n2nc(-c3ccccc3)cc2C(F)(F)F)n1,inactive: 101%
15,O=C(COC(=O)CCC(=O)c1cccs1)NC1CC1,inconclusive: 95.3%
16,CCN=C1SC(CC(=O)NC(C)c2ccccc2)C(=O)N1CC (stereo not drawn),inconclusive: 93.9%
17,COc1ccc(C(=O)COc2ccc3ccc(=O)oc3c2)cc1,inconclusive: 81.2%
18,O=S(=O)(c1ccc(Br)cc1)c1nc(-c2ccco2)oc1NCC1CCCO1 (stereo not drawn),inconclusive: 97%
19,CCOC(=O)c1oc2ccc(/C=N/O)c(Cl)c2c1C,inactive: 99.9%
20,CC(=O)COc1nc2c(c(-c3ccco3)c1C#N)CCc1ccccc1-2,inconclusive: 248%

row,Compound,binding response (% of control)
1,CC(C)NC(=O)/C(C#N)=C\c1ccc(N(C)C)c(Br)c1,inconclusive: 98.6%
2,COc1ccc(S(=O)(=O)c2cnc3ccc(OC)cc3c2N2CCC3(CC2)OCCO3)cc1,inactive: 99.6%
3,O=C(O)c1cc(N2C(=O)C3C4C=CC(C4)C3C2=O)ccc1N1CCOCC1 (stereo not drawn),inactive: 106%
4,COc1ccc(C(=O)O)cc1S(=O)(=O)NC(C)C,inconclusive: 160%
5,CCOC(=O)N1CCC(NC(=O)c2ccccc2C(=O)O)CC1,inconclusive: 112%
6,FC(F)Sc1ccc(NC(=S)NCc2ccccc2)cc1,inconclusive: 85.5%
7,Cc1cc(C)cc(OCC(=O)Nc2ccccc2N2CCCCC2)c1,inactive: 110%
8,Cc1nnc(SCc2nnc(-c3ccccc3)o2)n(N)c1=O,inactive: 103%
9,COc1ccc(N=Cc2ccc(-c3ccccc3)o2)cc1,inactive: 99.6%
10,COc1ccc(CNC(=S)NC(C)CCc2ccccc2)cc1 (stereo not drawn),inactive: 97.7%
11,O=C(NCc1ccc2c(c1)OCO2)C(=O)NCC(c1ccco1)N1CCN(c2ccccc2)CC1 (stereo not drawn),inconclusive: 110%
12,Cc1ccc(N(CC(=O)N2CCN(C3CCCCC3)CC2)S(=O)(=O)c2cccnc2)cc1,inactive: 108%
13,O=c1c2ccccc2oc2nc(-c3cccs3)n(CCc3ccccc3)c(=O)c12,inactive: 101%
14,O=C(c1ccc(F)cc1)N1CCC(c2ccccc2)C1 (stereo not drawn),inconclusive: 454%
15,Cc1ccc(C(C(=O)Nc2ccc3c(c2)OCO3)N(C)C(=O)Cc2c[nH]c3ccccc23)cc1 (stereo not drawn),inactive: 93.4%
16,CC(=O)Nc1ccc(OCC(=O)NCCc2ccccc2)cc1,inconclusive: 102%
17,CC(=O)c1cn(C)c(=O)[nH]c1=O,inconclusive: 91.3%
18,Cc1nc2cc3c(cc2s1)OCO3,inconclusive: 116%
